Results on six sequences are retold here after PMC10622577, “Structural basis for stabilisation of the RAD51 nucleoprotein filament by BRCA2” (Nature Communications, 2023).

Amino acid sequences for entries named in this document (tags omitted).
UniProt Q06609, whole entry: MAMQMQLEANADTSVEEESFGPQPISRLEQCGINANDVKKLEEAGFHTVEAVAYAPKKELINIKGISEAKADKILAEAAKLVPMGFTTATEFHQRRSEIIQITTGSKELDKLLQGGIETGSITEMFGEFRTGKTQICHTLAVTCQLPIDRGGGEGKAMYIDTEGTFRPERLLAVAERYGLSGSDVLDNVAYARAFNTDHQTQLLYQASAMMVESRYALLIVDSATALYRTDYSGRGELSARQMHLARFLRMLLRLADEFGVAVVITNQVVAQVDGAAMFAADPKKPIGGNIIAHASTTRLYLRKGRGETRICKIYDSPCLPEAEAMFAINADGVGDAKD
UniProt Q06609, whole entry D184A/D187A: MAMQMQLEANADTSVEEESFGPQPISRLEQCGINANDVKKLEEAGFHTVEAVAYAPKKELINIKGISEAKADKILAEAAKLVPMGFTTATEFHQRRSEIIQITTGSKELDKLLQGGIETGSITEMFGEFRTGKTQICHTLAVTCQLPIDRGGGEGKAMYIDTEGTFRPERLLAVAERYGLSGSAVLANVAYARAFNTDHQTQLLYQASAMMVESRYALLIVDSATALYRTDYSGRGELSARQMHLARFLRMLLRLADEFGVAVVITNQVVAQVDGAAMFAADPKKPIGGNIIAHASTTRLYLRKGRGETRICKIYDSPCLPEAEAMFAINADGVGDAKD
UniProt Q06609, whole entry D184A: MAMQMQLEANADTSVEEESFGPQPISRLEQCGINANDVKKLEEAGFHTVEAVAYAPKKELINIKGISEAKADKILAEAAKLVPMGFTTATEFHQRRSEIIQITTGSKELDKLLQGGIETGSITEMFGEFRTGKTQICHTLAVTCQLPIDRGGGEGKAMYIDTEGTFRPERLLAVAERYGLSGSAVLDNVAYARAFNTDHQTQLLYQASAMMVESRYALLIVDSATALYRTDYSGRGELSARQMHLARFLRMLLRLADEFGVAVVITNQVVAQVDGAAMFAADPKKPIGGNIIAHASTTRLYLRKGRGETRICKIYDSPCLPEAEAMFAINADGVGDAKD

The exact form of at least one protein or probe is not confirmed. For some of these results: The comparison behind a weaker result is the experiment's own reference, which may not be listed here. For some of these results: At least one verdict was read from the data and is not stated in words by the source.

In data set [1] the target is RAD51 (Homo sapiens) (UniProt Q06609). Put plainly: EMSA. Conditions: EMSA: 25 mM HEPES pH 7.5, 150 mM NaCl, 2 mM DTT, 2 mM ATP, 5 mM CaCl2, room temperature, recombinant protein.
Data set [2] has as its target RAD51 D184A, D187A (Homo sapiens) (UniProt Q06609). Put plainly: EMSA. As to conditions: BRC4 pre-incubated, disruption severely impaired, EMSA: 25 mM HEPES pH 7.5, 150 mM NaCl, 2 mM DTT, 2 mM ATP, 5 mM CaCl2, room temperature, recombinant protein, protein details: untagged (co-expressed with His6-MBP-BRC4). For orientation: A gel shift assay detects complexes by their altered migration in electrophoresis.

The subject of data set [3] is RAD51 D184A, D187A + BRCA2 TR2 peptide. Put plainly: EMSA. Conditions: ATP, Ca2+, EMSA: 25 mM HEPES pH 7.5, 150 mM NaCl, 2 mM DTT, 2 mM ATP, 5 mM CaCl2, room temperature, recombinant protein, protein details: untagged (co-expressed with His6-MBP-BRC4).
The test system of data set [4] is RAD51 D184A + BRCA2 TR2 peptide. Put plainly: EMSA. As to conditions: TR2 binding to filament reduced, ATP, Ca2+, EMSA: 25 mM HEPES pH 7.5, 150 mM NaCl, 2 mM DTT, 2 mM ATP, 5 mM CaCl2, room temperature, recombinant protein, protein details: untagged (co-expressed with His6-MBP-BRC4).
The target of data set [5] is RAD51 D184A (Homo sapiens) (UniProt Q06609). The data set can be described thus: EMSA. As to conditions: BRC4 pre-incubated, disruption moderately reduced, EMSA: 25 mM HEPES pH 7.5, 150 mM NaCl, 2 mM DTT, 2 mM ATP, 5 mM CaCl2, room temperature, recombinant protein, protein details: untagged (co-expressed with His6-MBP-BRC4).
For data set [6], the system named is RAD51 + MBP-TR2 S3291A. The data set can be described thus: EMSA. As to conditions: TR2 mutant binding to filament drastically reduced; EMSA: 25 mM HEPES pH 7.5, 150 mM NaCl, 2 mM DTT, 2 mM ATP, 5 mM CaCl2, room temperature; recombinant …; label: 5' FAM; single-stranded DNA.
Data set [7] has as its target RAD51 D184A, D187A (Homo sapiens) (UniProt Q06609). The data set can be described thus: SPR. As to conditions: BRC4 injected, disassembly largely reduced, SPR: 25 mM HEPES pH 7.4, 100 mM NaCl, 2 mM DTT, 2 mM ATP, 5 mM CaCl2, 5 mM MgCl2, recombinant protein, protein details: untagged (co-expressed with His6-MBP-BRC4).
Data set [8] deals with RAD51 (Homo sapiens) (UniProt Q06609). The data set can be described thus: SPR. Conditions: BRC4 injected, filament disassembles, SPR: 25 mM HEPES pH 7.4, 100 mM NaCl, 2 mM DTT, 2 mM ATP, 5 mM CaCl2, 5 mM MgCl2, recombinant protein.
Data set [9] deals with RAD51 D184A, D187A + BRCA2 TR2 peptide. The data set can be described thus: SPR. As to conditions: TR2 on preformed filament, weaker than D184A, ATP, Ca2+, Mg2+, SPR: 25 mM HEPES pH 7.4, 100 mM NaCl, 2 mM DTT, 2 mM ATP, 5 mM CaCl2, 5 mM MgCl2, recombinant protein, protein details: untagged (co-expressed with His6-MBP-BRC4).
Data set [10] concerns RAD51 D184A + BRCA2 TR2 peptide. The data set can be described thus: SPR. Conditions: TR2 on preformed filament, ATP, Ca2+, Mg2+, SPR: 25 mM HEPES pH 7.4, 100 mM NaCl, 2 mM DTT, 2 mM ATP, 5 mM CaCl2, 5 mM MgCl2, recombinant protein, protein details: untagged (co-expressed with His6-MBP-BRC4).
Data set [11] concerns the target RAD51 D184A (Homo sapiens) (UniProt Q06609). Put plainly: SPR. Conditions: BRC4 injected, disassembly moderately reduced, SPR: 25 mM HEPES pH 7.4, 100 mM NaCl, 2 mM DTT, 2 mM ATP, 5 mM CaCl2, 5 mM MgCl2, recombinant protein, protein details: untagged (co-expressed with His6-MBP-BRC4).
The mark [12] stands for this setting: label: 5' FAM, single-stranded DNA.
Setting [13] is: label: 5' biotin, single-stranded DNA.

On to “ATGGTGTGTGTAGGTTAATGTGAGGAGGAGAGGTGAAGAAGGAGGAGAGAAGAAGGAGGC [60-nt ssDNA doubly biotinylated]”, for which the binding result in data set [1] (with or without mSA caps, label: 5' and 3' biotin, single-stranded DNA) is on record as “binds”.

In the case of “ATGGTGTGTGTAGGTTAATGTGAGGAGGAGAGGTGAAGAAGGAGGAGAGAAGAAGGAGGC (double strand) [60-bp dsDNA doubly biotinylated]”, the binding result in data set [1] (with or without mSA caps, label: 5' and 3' biotin on strand 1) was “binds”.

For the sequence “ATGGTGTGTGTAGGTTAATGTGAGGAGGAGAGGTGAAGAAGGAGGAGAGAAGAAGGAGGC (double strand) [60-bp dsDNA FAM]”, the binding result in [2] (label: 5' FAM on strand 1) is given as “binds”; in [1] (ATP, Ca2+, label: 5' FAM on strand 1) it was “binds”; in data set [1] (BRC4 pre-incubated, disrupts filament formation, label: 5' FAM on strand 1), “binds more weakly”; in [3] (TR2 binding to filament reduced, label: 5' FAM on strand 1) it was “binds more weakly”; in [4] (label: 5' FAM on strand 1) it was “binds more weakly”; in [5] (label: 5' FAM on strand 1), “binds”.

For the sequence “ATGGTGTGTGTAGGTTAATGTGAGGAGGAGAGGTGAAGAAGGAGGAGAGAAGAAGGAGGC [60-nt ssDNA FAM]”, the binding result in data set [2] (setting [12]) is “binds”; in [1] (ATP, Ca2+, label: 5' FAM, single-stranded DNA) it was “binds”; in data set [1] (BRC4 pre-incubated, disrupts filament formation, label: 5' FAM, single-stranded DNA) it was “binds more weakly”; in data set [3] (TR2 binding to filament strongly reduced, label: 5' FAM, single-stranded DNA), “binds more weakly”; in data set [4] (setting [12]), “binds more weakly”; in data set [5] (setting [12]) it was “binds”. Moreover, in [6], the binding result is given as “binds more weakly”.

For the sequence “ATGGTGTGTGTAGGTTAATGTGAGGAGGAGAGGTGAAGAAGGAGGAGAGAAGAAGGAGGC [60-nt ssDNA biotin]”, the binding result in data set [7] (setting [13]) is recorded as “binds”; in [8] (setting [13]) it was “binds more weakly”; in [9] (setting [13]), “binds more weakly”; in data set [10] (setting [13]), “binds more weakly”; in [11] (setting [13]) it was “binds”.

For the sequence “ATGGTGTGTGTAGGTTAATGTGAGGAGGAGAGGTGAAGAAGGAGGAGAGAAGAAGGAGGC (double strand) [60-bp dsDNA biotin]”, the binding result is recorded as “binds” in data set [7] (label: 5' biotin on strand 1); “binds more weakly” in [8] (label: 5' biotin on strand 1); “binds more weakly” in data set [9] (label: 5' biotin on strand 1); “binds more weakly” in data set [10] (label: 5' biotin on strand 1); “binds” in data set [11] (label: 5' biotin on strand 1).
